Data source: PubChem BioAssay AID1259405 (NCATS, 2018)

- Test: 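Knock-downs that lift recombinant protein yield in hamster ovary cells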 (primary screen)
- Cells: Chinese hamster CHO-K1 ovary cells with stable secreted eGFP expression
- Knock-down reagent: single siRNA against mouse genes, 0.8 pmol siRNA per well (2 µl of 400 nM stock)
- Duration: 3 days
- Measured: 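Per-well intracellular GFP measured by laser scanning cytometry, plus viability from ATP luminescence, each relative to plate median of non-targeting control wells, in %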
- Reading the numbers: GFP, % of control: higher = more GFP per well, higher productivity; viability (ATP), % of control: higher = more viable cells (more ATP)
- Rule for the call: 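Called active when intracellular GFP, relative to negative control, is at or above 120%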
In all, the deposit lists about 50,000 reagents; shown is a part drawn at random. About 4,000 of all reagents (8%) were called active. 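Mouse siRNA library applied to hamster cells; one well for each siRNA.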 A number with no mark means an inactive call. Reagents against one gene are numbered here.

no.	gene knocked down	siRNA no.	GFP, % of control	viability (ATP), % of control
1	Pitpnc1 (phosphatidylinositol transfer protein, cytoplasmic 1)	1	61.8	64
2	Pitpnc1 (phosphatidylinositol transfer protein, cytoplasmic 1)	2	110	78.3
3	Pitpnc1 (phosphatidylinositol transfer protein, cytoplasmic 1)	3	90.5	101
4	Tlr4 (toll-like receptor 4)	1	114	87.2
5	Tlr4 (toll-like receptor 4)	2	42.5	51.6
6	Tlr4 (toll-like receptor 4)	3	122 (active)	77.7
7	Rpl21 (ribosomal protein L21)	1	125 (active)	105
8	Rpl21 (ribosomal protein L21)	2	86.2	70.2
9	Rpl21 (ribosomal protein L21)	3	76.2	79.4
10	Insc (INSC spindle orientation adaptor protein)	1	40.5	40
11	Insc (INSC spindle orientation adaptor protein)	2	54	80.3
12	Insc (INSC spindle orientation adaptor protein)	3	73	76.2
13	Zfp787 (zinc finger protein 787)	1	89.6	85.3
14	Zfp787 (zinc finger protein 787)	2	90.9	72.4
15	Zfp787 (zinc finger protein 787)	3	73.3	79.1
16	Cgrrf1 (cell growth regulator with ring finger domain 1)	1	74.3	85.5
17	Cgrrf1 (cell growth regulator with ring finger domain 1)	2	99.3	87.4
18	Cgrrf1 (cell growth regulator with ring finger domain 1)	3	64.7	71
19	Eloa (elongin A)	1	104	125
20	Eloa (elongin A)	2	83.8	112
21	Eloa (elongin A)	3	136 (active)	73.1
22	Isy1 (spliceosome associated protein)	1	90.1	78.6
23	Isy1 (spliceosome associated protein)	2	144 (active)	84.1
24	Isy1 (spliceosome associated protein)	3	105	128
25	Tceanc2	1	93.4	55.3
26	Tceanc2	2	31.4	24.3
27	Tceanc2	3	147 (active)	114
28	Tceanc2	4	58.9	65.5
29	Tceanc2	5	65.9	91.6
30	Tceanc2	6	141 (active)	150

Entries listed above with an active call:
gene knocked down	siRNA no.	GFP, % of control	viability (ATP), % of control
Tlr4 (toll-like receptor 4)	3	122 (active)	77.7
Rpl21 (ribosomal protein L21)	1	125 (active)	105
Eloa (elongin A)	3	136 (active)	73.1
Isy1 (spliceosome associated protein)	2	144 (active)	84.1
Tceanc2	3	147 (active)	114
Tceanc2	6	141 (active)	150

Next entries follow:
no.	gene knocked down	siRNA no.	GFP, % of control	viability (ATP), % of control
31	Frmd6 (FERM domain containing 6)	1	67.5	85.7
32	Frmd6 (FERM domain containing 6)	2	21	24.5
33	Frmd6 (FERM domain containing 6)	3	92.6	106
34	Adprm (ADP-ribose/CDP-alcohol diphosphatase, manganese dependent)	1	72.9	63.6
35	Adprm (ADP-ribose/CDP-alcohol diphosphatase, manganese dependent)	2	93.7	65.3
36	Adprm (ADP-ribose/CDP-alcohol diphosphatase, manganese dependent)	3	71.3	51.7
37	Zfp507 (zinc finger protein 507)	1	82.8	75.6
38	Zfp507 (zinc finger protein 507)	2	89.5	98.6
39	Zfp507 (zinc finger protein 507)	3	101	84.5
40	Prkrip1 (Prkr interacting protein 1 (IL11 inducible))	1	64.3	51.1
41	Prkrip1 (Prkr interacting protein 1 (IL11 inducible))	2	86.3	52.1
42	Prkrip1 (Prkr interacting protein 1 (IL11 inducible))	3	86.1	92.6
43	Alkbh5 (alkB homolog 5, RNA demethylase)	1	95.8	89.2
44	Alkbh5 (alkB homolog 5, RNA demethylase)	2	74.2	83.4
45	Alkbh5 (alkB homolog 5, RNA demethylase)	3	57.4	64
46	Armc1 (armadillo repeat containing 1)	1	89.2	52.8
47	Armc1 (armadillo repeat containing 1)	2	57.6	68.5
48	Armc1 (armadillo repeat containing 1)	3	70.7	90.9
49	Zfp296 (zinc finger protein 296)	1	68.9	95
50	Zfp296 (zinc finger protein 296)	2	50.6	60.6
51	Zfp296 (zinc finger protein 296)	3	46.1	71.5
52	Xlr3a (X-linked lymphocyte-regulated 3A)	1	49.1	51.4
53	Xlr3a (X-linked lymphocyte-regulated 3A)	2	76.1	92.5
54	Xlr3a (X-linked lymphocyte-regulated 3A)	3	82.1	109
55	Has3 (hyaluronan synthase 3)	1	64.7	117
56	Has3 (hyaluronan synthase 3)	2	90.4	125
57	Has3 (hyaluronan synthase 3)	3	47.8	73.1
58	Micu2 (mitochondrial calcium uptake 2)	1	63.2	63.3
59	Micu2 (mitochondrial calcium uptake 2)	2	52.8	64.8
60	Micu2 (mitochondrial calcium uptake 2)	3	42.9	34.2
61	Crabp1 (cellular retinoic acid binding protein I)	1	213 (active)	127
62	Crabp1 (cellular retinoic acid binding protein I)	2	97.5	68.4
63	Crabp1 (cellular retinoic acid binding protein I)	3	83.4	77.1
64	Crabp1 (cellular retinoic acid binding protein I)	4	132 (active)	58.8
65	Crabp1 (cellular retinoic acid binding protein I)	5	106	81.6
66	Crabp1 (cellular retinoic acid binding protein I)	6	139 (active)	95.4
67	Rnaset2b (ribonuclease T2B)	1	97.1	99.1
68	Rnaset2b (ribonuclease T2B)	2	131 (active)	49.9
69	Rnaset2b (ribonuclease T2B)	3	105	92.2
70	Odam (odontogenic, ameloblast asssociated)	1	76.2	84.9
71	Odam (odontogenic, ameloblast asssociated)	2	94.9	49
72	Odam (odontogenic, ameloblast asssociated)	3	68.3	60.9
73	Kcnj10	1	101	97.9
74	Kcnj10	2	71.7	92.7
75	Kcnj10	3	74.2	90.1
76	Dcun1d3 (defective in cullin neddylation 1 domain containing 3)	1	43	37.3
77	Dcun1d3 (defective in cullin neddylation 1 domain containing 3)	2	55.4	64.5
78	Dcun1d3 (defective in cullin neddylation 1 domain containing 3)	3	93.9	85
79	Klrb1c (killer cell lectin-like receptor subfamily B member 1C)	1	71.5	86.3
80	Klrb1c (killer cell lectin-like receptor subfamily B member 1C)	2	63.1	87.2
81	Klrb1c (killer cell lectin-like receptor subfamily B member 1C)	3	67.4	67.6
82	Atrnl1 (attractin like 1)	1	66.5	71.8
83	Atrnl1 (attractin like 1)	2	1.47	36.4
84	Fbxo6 (F-box protein 6)	1	77.5	102
85	Fbxo6 (F-box protein 6)	2	126 (active)	90.6
